This is an account of results in PubChem BioAssay AID2685 (National Center for Advancing Translational Sciences (NCATS), 2010).

This is one part of the list. These are further read-outs of the screen, such as a control signal, another cell line or another target. No call is given for them. Most of these compounds were active or inconclusive in the main read-out, so they are no random draw. The note in brackets gives the kind of curve behind each potency; many fits are weak.

A short description of this test: qHTS Assay for Lipid Storage Modulators in Drosophila S3 Cells.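 For cell number change: cells counted by Cell Tracker Red CMTPX staining in the red channel.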 To be noted: BODIPY lipid droplet fluorescence, 18-24 h; for cell number change: measured here: cell count max response, cells fed with added oleic acid. In outline:
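Drosophila S3 cells got compounds at several concentrations plus oleic acid (400 uM solution). Laser-scanning cytometry with 488 nm excitation read lipid droplets at 500-530 nm and cells at 575-640 nm. Percent activity was relative to 20 uM Triacsin C.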

Where [1] appears, read: measured here: cell number channel AC50, cells fed with added oleic acid.
[2] abbreviates: measured here: lipid fluorescence (Fed channel) AC50, cells fed with added oleic acid.

In the case of `COc1ccc(CCC(=O)Nc2ccc(S(=O)(=O)N3CCOCC3)cc2)cc1`, the cell number change stood at 16.8%. The AC50 under setting [1] is 0.00517 µM [rising, full curve, poor fit]. `O=C(NCCc1ccccc1)c1ccc(Cn2c(SCc3cccc(F)c3)nc3cccnc32)cc1`: the cell number change stood at 28.1%. The AC50 under setting [2] is 20.6 µM [rising, partial curve]. Consider `CCCN(Cc1ccccc1)C(=S)Nc1ccc(C(C)=O)cc1`, for which the cell number change is -18.7%. Moreover, the AC50 under setting [2] is 29.1 µM [falling, single point]. On to `O=C(NC1CCCCCC1)c1ccc(Br)o1`, for which the cell number change was -3.81%. For `O=C(CSc1nc(-c2ccco2)cc(C(F)(F)F)n1)NCc1cccs1`, the cell number change was -15.1%. Under setting [2], the AC50 is 0.517 µM [rising, full curve, poor fit]. For `CCN(CC)S(=O)(=O)c1ccc(OC)c(NC(=O)c2cccc(C)c2[N+](=O)[O-])c1`, the cell number change worked out at 9.83%. Turning to `Nc1nc(SCCOc2ccccc2)n[nH]1`, the AC50 under setting [2] was 0.13 µM [rising, full curve, poor fit]. Take `CC(=O)Nc1ccc(NC(=O)c2ccc(-n3c(C)ccc3C)cc2)cc1`: the cell number change was determined as 6.93%. In addition, the AC50 under setting [2] is 2.31 µM [rising, full curve, poor fit]. With `C=CCn1c(CSc2nc3ccccc3s2)n[nH]c1=S`, the cell number change was 42%. Moreover, the AC50 under setting [1] was 29.1 µM [rising, single point]. For the molecule `O=C(COc1ccc2c3c(c(=O)oc2c1)CCCC3)N[C@@H](Cc1ccccc1)C(=O)O`, the cell number change came out at 12.6%.

Turning to `COc1cccc(NC(=O)CN(c2ccc3c(c2)OCO3)S(C)(=O)=O)c1`, the cell number change is -4.03%. Moreover, under setting [2], the half-maximal activity concentration (AC50) is 3.66 µM [falling, single point]. For the molecule `CCOC(=O)CCNC(=O)N1CCCC(C(=O)c2ccc3c(c2)OCO3)C1` (configuration not stated), the cell number change is -20.9%. For the same molecule, under setting [2], the AC50 is 8.2 µM [falling, partial curve]. With `CCc1nc(SCC(=O)Nc2cccc(C(F)(F)F)c2)c2c(=O)n(C)c(=O)n(C)c2n1`, the cell number change is 94.5%. Also, under setting [1], the AC50 was 4.61 µM [rising, partial curve]. Moreover, under setting [2], the AC50 is 1.64 µM [rising, partial curve, poor fit]. Take `Cc1cccc(Oc2c(C=O)c3ccccc3n2C)c1`: the cell number change came to 29%. Also, the AC50 under setting [2] was 14.6 µM [rising, partial curve]. As to `CCOC(=O)c1nnn(-c2nonc2N)c1C`, the cell number change was 48.3%. Further, the AC50 under setting [1] was 0.326 µM [rising, full curve]. Turning to `CCCCc1nc2cc(C(=O)N3CCCCC3CCNC(C)=O)ccc2o1` (configuration not stated), the cell number change is 3.97%. Consider `Cc1ccc2cc(C#N)c(NCCNC(=S)NCCCN3CCOCC3)nc2c1`, for which the cell number change is -41.8%. The AC50 under setting [1] is 29.1 µM [falling, single point].

For `O=S(=O)(NCc1nnc2c(C(F)(F)F)cc(Cl)cn12)c1ccccc1`, the cell number change came out at 10.8%. With `CCOC(=O)C1=C(Nc2ccc(Cl)cc2)OCC1=O`, the cell number change stood at 9.38%. For the same molecule, the AC50 under setting [2] is 5.17 µM [falling, single point]. Turning to `COc1ccc(CNc2nn[nH]n2)cc1OC`, the cell number change was -9.14%. Further, the AC50 under setting [2] is 23.1 µM [falling, partial curve]. On to `CN(C)CC(C)(C)CNC(=O)c1cc(Br)cc(Br)c1O`, for which the cell number change stood at 39.3%. On to `COc1ccc(C(=O)CCC(=O)O)cc1`, for which the cell number change is -1.42%. The AC50 under setting [2] is 1.3 µM [rising, partial curve]. With `CCCN1CCN(c2ncnc3c2nnn3Cc2ccccc2)CC1`, the cell number change turned out to be 30.9%. The AC50 under setting [1] was 0.116 µM [rising, full curve]. Turning to `CC(C)C(c1nnnn1Cc1ccco1)N1CCN(c2nc3ccccc3s2)CC1` (configuration not stated), the cell number change was -25.2%. Under setting [2], the AC50 is 4.11 µM [rising, single point]. As for `COCCNC(=O)CCc1c(C)nc2c(-c3ccc(F)cc3)c(C)nn2c1C`, the cell number change was -9.45%. For the molecule `COC(=O)c1ccc(CNC(=O)C2CCC(=O)N(CCc3ccccc3)C2)cc1` (configuration not stated), the AC50 under setting [1] is 0.82 µM [falling, single point]. As to `CCOC(=O)c1sc(=S)n(-c2ccccc2)c1C`, the cell number change was -28.8%. Regarding `COC(C(=O)Nc1ccnn1C1CCN(Cc2cnn(C)c2)CC1)c1ccccc1` (configuration not stated), the cell number change was 32.6%. Besides, the AC50 under setting [1] is 9.2 µM [rising, partial curve]. In addition, the AC50 under setting [2] was 29.1 µM [rising, single point]. Regarding `Cc1[nH]c2ccc(F)cc2c1CCN(Cc1cccnc1)C(=S)Nc1cccc(F)c1`, the cell number change is 24.2%. `CSc1ncc(CN2CCN(C3CCCCC3)C(CCO)C2)cn1` (configuration not stated): the cell number change was 3.18%. Also, under setting [2], the AC50 is 0.146 µM [falling, full curve, poor fit]. In the case of `CCCCn1c(-c2cccc(F)c2)nc2c1c(=O)[nH]c(=O)n2CC(C)C`, the cell number change was determined as 3.81%.

On to `COc1ccc(CN2CC34C=CC(O3)C(C(=O)O)C4C2=O)cc1` (configuration not stated), for which the cell number change was -0.681%. On to `CC(=O)c1cccc(Nc2nc(-c3sc(C)nc3C)cs2)c1`, for which the cell number change was -63.5%. In addition, the half-maximal activity concentration (AC50) under setting [1] is 4.11 µM [falling, full curve]. Under setting [2], the AC50 was 6.51 µM [falling, single point]. With `Cn1nc(N)c2c(-c3ccccc3)c(C#N)c(N)nc21`, the cell number change was determined as 8.63%. Also, the AC50 under setting [2] is 0.00461 µM [rising, full curve, poor fit]. `CCOc1ccc(C(=O)Nc2cccc(-c3ccc(N4CCOCC4)nn3)c2)cc1OCC`: the AC50 under setting [2] was 1.46 µM [rising, partial curve]. `COc1ccccc1Oc1ccc(N/C=C/C(=O)c2ccc(C)o2)cc1`: the cell number change worked out at 1.58%. Further, the AC50 under setting [1] is 3.26 µM [rising, single point]. Turning to `CC(C)c1ccc(N=C(N)N=C(N)N)cc1`, the cell number change is -6.91%. In addition, the AC50 under setting [2] was 0.731 µM [falling, single point]. In the case of `ClCC1=Nc2cccc3cccc(c23)N1`, the cell number change stood at 1.09%. `CCSc1nnc(NC(=O)CSc2ncccn2)s1`: the cell number change amounted to 86.7%. Also, the AC50 under setting [1] is 29.1 µM [rising, single point].

As for `Cc1ccc(-c2nc3cnccn3c2Nc2c(C)cccc2C)o1`, the cell number change came out at 45.3%. The AC50 under setting [1] is 14.6 µM [rising, single point]. For the molecule `Cc1ccc(C(=O)N[C@H](C(=O)Nc2ccc(N3CCOCC3)cc2)C(C)C)cc1`, the cell number change was -38.6%. Moreover, the AC50 under setting [1] was 0.116 µM [falling, full curve].

As for `COc1cccc(NC(=S)N(Cc2ccc(C(=O)O)cc2)Cc2ccc(OC)c(OC)c2)c1`, the cell number change came to 10.6%. For `COc1cc(/C=C/C(=O)O)cc(S(=O)(=O)NCCCC(=O)O)c1OC`, the cell number change is -44.3%. Besides, under setting [1], the AC50 was 29.1 µM [falling, single point]. As for `O=C(O)/C(=C\c1ccc(C(F)(F)F)cc1)c1ccc(S(=O)(=O)N2CCCC2)s1`, the cell number change was determined as 10%. Also, under setting [1], the AC50 was 0.326 µM [falling, single point]. On to `CCn1c2ccccc2c2cc(NC(=O)N3CCOCC3)ccc21`, for which the cell number change came out at 11.4%. Further, the AC50 under setting [2] is 0.651 µM [rising, full curve].

Broadly, the AC50 is the concentration at which the activity in the assay is half-maximal. Lower therefore signals activity at low concentration.
